No constants are given. Whether binding was seen depends on the method and setting. In cells and extracts the contact can be indirect. Here binding means that the protein was enriched with, or labelled near, the bait; the list need not be complete. Where a sequence is shown, tags or fusion partners need not be part of it.
T1: Flag-tagged CBX4 (chromobox homolog 4), wild type (human) (UniProt O00257)
T1 sequence: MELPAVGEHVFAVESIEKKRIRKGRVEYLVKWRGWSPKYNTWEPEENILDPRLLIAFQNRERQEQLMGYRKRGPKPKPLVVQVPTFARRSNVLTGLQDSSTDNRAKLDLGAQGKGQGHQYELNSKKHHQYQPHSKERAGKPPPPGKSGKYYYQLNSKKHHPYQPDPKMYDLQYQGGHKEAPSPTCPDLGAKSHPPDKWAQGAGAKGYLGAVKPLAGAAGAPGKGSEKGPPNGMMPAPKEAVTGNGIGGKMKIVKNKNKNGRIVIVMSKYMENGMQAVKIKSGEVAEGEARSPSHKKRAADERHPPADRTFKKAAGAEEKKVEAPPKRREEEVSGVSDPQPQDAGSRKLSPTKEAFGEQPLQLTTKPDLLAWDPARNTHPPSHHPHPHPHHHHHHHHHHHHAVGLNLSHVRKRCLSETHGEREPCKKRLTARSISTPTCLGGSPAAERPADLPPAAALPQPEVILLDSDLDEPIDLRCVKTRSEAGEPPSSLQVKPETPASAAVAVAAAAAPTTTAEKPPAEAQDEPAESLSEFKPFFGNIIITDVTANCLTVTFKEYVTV

Amino acid sequences for entries named in this document (tags omitted).
UniProt Q9UNE7: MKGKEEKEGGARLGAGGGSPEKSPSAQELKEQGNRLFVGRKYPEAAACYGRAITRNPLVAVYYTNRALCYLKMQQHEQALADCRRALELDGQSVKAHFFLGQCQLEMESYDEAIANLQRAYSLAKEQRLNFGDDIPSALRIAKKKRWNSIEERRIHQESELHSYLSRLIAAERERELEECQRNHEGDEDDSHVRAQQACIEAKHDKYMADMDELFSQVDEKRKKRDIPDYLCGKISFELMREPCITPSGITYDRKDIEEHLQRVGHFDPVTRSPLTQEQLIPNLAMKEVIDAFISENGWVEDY


Molecular target: T1, Flag-tagged CBX4 (chromobox homolog 4), wild type (human)
Assay: affinity purification with mass spectrometry; HEK293T cells transiently expressing Flag-tagged CBX4; lysed in NETN buffer; Flag-conjugated beads 4 h at 4 °C; five washes; SDS-PAGE, Coomassie staining, indicated bands sequenced by MS

binding | Molecule
binds | endogenous CHIP of HEK293T cells (from UniProt Q9UNE7 1-303) (enzyme)
binds | endogenous MKRN2 of HEK293T cells (enzyme, UniProt Q9H000 1-416) MSTKQITCRYFMHGVCREGSQCLFSHDLANSKPSTICKYYQKGYCAYGTRCRYDHTRPSAAAGGAVGTMAHSVPSPAFHSPHPPSEVTASIVKTNSHEPGKREKRTLVLRDRNLSGMAERKTQPSMVSNPGSCSDPQPSPEMKPHSYLDAIRSGLDDVEASSSYSNEQQLCPYAAAGECRFGDACVYLHGEVCEICRLQVLHPFDPEQRKAHEKICMLTFEHEMEKAFAFQASQDKVCSICMEVILEKASASERRFGILSNCNHTYCLSCIRQWRCAKQFENPIIKSCPECRVISEFVIPSVYWVEDQNKKNELIEAFKQGMGKKACKYFEQGKGTCPFGSKCLYRHAYPDGRLAEPEKPRKQLSSQGTVRFFNSVRLWDFIENRESRHVPNNEDVDMTELGDLFMHLSGVESSEP
